Experimental data published in patent publication US20250288206A1, “SYSTEMS AND METHODS FOR MONITORING OF DELIVERY OF LABEL-FREE DRUGS” (City University of Hong Kong, priority 2024, published 2025).

What was measured:
[1] = CEST imaging of phantoms (Z-spectra at 3T); assay type: physicochemical; details: for Observed CEST Contrast Offset: solvent in HEPES buffered saline
[2] = Bloch-McConnell fitting of DMSO CEST peak; assay type: physicochemical; details: fitted value; B0 3T, B1 1.2 μT, Tsat 4 s
Method: During the course leading to the present invention, a series of internal and external factors that can influence DMSO's CEST effect were examined. DMSO's concentration linearly correlated with observed signal magnitude, while the change in signal when varying pH from pH 5.5 to pH 8 was less obvious. As temperature went down from 40° C. to 20° C., DMSO's CEST peak gradually moved upfield (please see FIGS. 1F to 1G). It appears that intermolecular interaction between DMSO and water was dependent on temperature. […] Exchange rate and was estimated with Bloch-McConnell fitting. Input of solute concentration was 1.41 M (molar concentration of 10% v/v DMSO) multiplied by a factor of 1.4, which was an estimation of concentration of “structured” water that formed by intermolecular interaction with DMSO and thereby served as relaying sites.

Row | Compound | CEST peak offset [1] | Observed CEST Contrast Offset [1] | DMSO T2b [2]
1 | O=C1CC(=O)NC(=O)N1 [BA, barbituric acid, reference compound] | 5 ppm |  | 
2 | 1-propanol |  | −3.8 ppm | 
3 | acetonitrile | around −2.5 ppm | −2.5 ppm | 
4 | CCO [Ethanol, ethanol] |  | −3.6 ppm | 
5 | C[S+](C)[O-] [DMSO, dimethyl sulfoxide] | around −2 ppm | −2 ppm | 0.4607 s
6 | CO [Methanol, methanol] |  | −1.4 ppm | 
7 | CC(C)O [2-Propanol (Isopropanol), 2-propanol] |  | −3.6 ppm | 
8 | acetone | around −2.5 ppm | −2.5 ppm | 
